# Measurements as given in patent US10317405B2, “Methods of detecting Akt3 and administering Ax1 inhibitor” (BERGENBIO ASA, priority 2012, dated 2019).
# At least one compound was matched to its structure with a doubt left.
# Legend:
# MCF10A cells [1] = assay: Mesenchymal phenotype in 2D growth and invasive growth in 3D Matrigel of transduced MCF10A cells treated with Akt inhibitors; assay type: cell-based, human; conditions: inhibitor 10 μM, 12 hours
# Experimental: (§1) MCF10A cells were cultured and transduced with retroviral constructs expressing myrAkt1, MyrAkt3 or Slug as described in FIGS. 1 and 3. The cells were treated with Akt inhibitors LY294002 (10 μM, Cell Signaling Technology, Cat. #9901) and Akt VIII (10 μM, Merck, Cat. #124018) for 12 hours as indicated. Cells were then either visualized at indicated magnification by phase-contrast microscopy, or seeded for invasive growth in 3D Matrigel as described in Example 3.
# MCF10A cells [2] = assay: Immunoblot of EMT markers (N-cadherin, vimentin, E-cadherin) in transduced MCF10A cells treated with Akt inhibitor; assay type: cell-based, human; conditions: inhibitor 10 μM, 12 hours
# Experimental: as §1
# MCF10A cells were cultured and transduced with retroviral constructs expressing myrAkt1, MyrAkt3 or Slug as described in FIGS. 1 and 3. The cells were treated with Akt inhibitor as described in FIG. 6. SDS/PAGE, immunoblotting and antibodies as described in Examples 1 and 4.
compound,measurement,setting,value
O=c1cc(N2CCOCC2)oc2c(-c3ccccc3)cccc12 [LY-294002],mesenchymal phenotype induced by Akt3,MCF10A cells [1]; MCF10A cells expressing MyrAkt3,inhibit
same,mesenchymal/invasive phenotype induced by Slug in 2D and 3D growth,"MCF10A cells [1]; MCF10A cells expressing Slug, 2D culture and 3D Matrigel",inhibit
same,mesenchymal marker vimentin expression,MCF10A cells [2],reduced vimentin expression
same,re-expression of the epithelial marker E-cadherin,MCF10A cells [2],Neither inhibitor led to re-expression
same,reversal of the mesenchymal phenotype / inhibition of EMT,MCF10A cells [2],partial inhibition
